Article PMC7804430, “Synthesis and tumour cell uptake studies of gadolinium(III)–phosphonium complexes” (Scientific Reports, 2021)

Experiment: Competition (challenge) stability assay with xylenol orange at acidic pH
Format: physicochemical
Settings: 10 concentrations 2.0–250 μM
Procedure: In this work, the relative stability of complexes 6 and 7 were compared to the previously-reported archetypal Gd(III)-DO3A triphenylphosphonium complex (11, shown in Fig. 2) at acidic pH by means of a competition (challenge) assay using the lanthanoid(III) ion indicator xylenol orange[32]. These assays were performed under mildly acidic conditions to ensure the phenolic hydroxyl was protonated prior to chelation.
Solution stability assays were performed using the method described by Barge et al.[32]. Initially an acetate buffer solution (50 mM) was prepared, a portion of which was adjusted to pH 5.8 using NaOH, while other portions were adjusted to pH 5.0, 4.0, or 3.0 using glacial acetic acid. Xylenol orange (5.81 mg) was dissolved in the pH 5.8 acetate buffer (48.4 mL) to give a 10 × concentrated stock solution. These solutions were treated as light sensitive, work was conducted in minimal light and solutions were covered in foil.
25 mM stock solutions of each GdCl3, […] 11 were prepared in the various buffer solutions. […] The plates were agitated in a plate reader and allowed to equilibrate for 24 h. […] The plates were again agitated in a plate reader and allowed to equilibrate for 15 min at RT. The absorbance values were then determined at both 573 nm and 433 nm by means of a BMG LABTECH POLARstar Omega, UV Spectrometer, and the data plotted and processed using Graphpad Prism 7.

With `[Cl][Gd]([Cl])[Cl]` [GdCl3] the “Gradient (slope of line of best fit)” value (pH 5.0) was 3.83 × 10^−2 and the “Gradient (slope of line of best fit)” value (pH 5.8) was 3.57 × 10^−2.
